These results are taken from PMC3607232.

Chains of the proteins cited; added tags and fusions are not shown. Residues count along the entry.
UniProt Q01196: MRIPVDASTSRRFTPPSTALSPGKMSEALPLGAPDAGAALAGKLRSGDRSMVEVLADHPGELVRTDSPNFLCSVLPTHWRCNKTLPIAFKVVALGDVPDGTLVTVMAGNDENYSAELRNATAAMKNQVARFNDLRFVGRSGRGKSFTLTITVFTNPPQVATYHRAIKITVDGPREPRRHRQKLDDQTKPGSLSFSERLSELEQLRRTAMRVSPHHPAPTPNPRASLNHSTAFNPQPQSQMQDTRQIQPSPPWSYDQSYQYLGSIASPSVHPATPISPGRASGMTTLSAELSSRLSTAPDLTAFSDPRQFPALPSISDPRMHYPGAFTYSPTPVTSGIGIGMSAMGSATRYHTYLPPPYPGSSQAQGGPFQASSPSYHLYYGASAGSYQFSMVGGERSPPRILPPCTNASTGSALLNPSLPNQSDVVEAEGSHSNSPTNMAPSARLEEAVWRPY
UniProt Q03164, residues 2719-3969: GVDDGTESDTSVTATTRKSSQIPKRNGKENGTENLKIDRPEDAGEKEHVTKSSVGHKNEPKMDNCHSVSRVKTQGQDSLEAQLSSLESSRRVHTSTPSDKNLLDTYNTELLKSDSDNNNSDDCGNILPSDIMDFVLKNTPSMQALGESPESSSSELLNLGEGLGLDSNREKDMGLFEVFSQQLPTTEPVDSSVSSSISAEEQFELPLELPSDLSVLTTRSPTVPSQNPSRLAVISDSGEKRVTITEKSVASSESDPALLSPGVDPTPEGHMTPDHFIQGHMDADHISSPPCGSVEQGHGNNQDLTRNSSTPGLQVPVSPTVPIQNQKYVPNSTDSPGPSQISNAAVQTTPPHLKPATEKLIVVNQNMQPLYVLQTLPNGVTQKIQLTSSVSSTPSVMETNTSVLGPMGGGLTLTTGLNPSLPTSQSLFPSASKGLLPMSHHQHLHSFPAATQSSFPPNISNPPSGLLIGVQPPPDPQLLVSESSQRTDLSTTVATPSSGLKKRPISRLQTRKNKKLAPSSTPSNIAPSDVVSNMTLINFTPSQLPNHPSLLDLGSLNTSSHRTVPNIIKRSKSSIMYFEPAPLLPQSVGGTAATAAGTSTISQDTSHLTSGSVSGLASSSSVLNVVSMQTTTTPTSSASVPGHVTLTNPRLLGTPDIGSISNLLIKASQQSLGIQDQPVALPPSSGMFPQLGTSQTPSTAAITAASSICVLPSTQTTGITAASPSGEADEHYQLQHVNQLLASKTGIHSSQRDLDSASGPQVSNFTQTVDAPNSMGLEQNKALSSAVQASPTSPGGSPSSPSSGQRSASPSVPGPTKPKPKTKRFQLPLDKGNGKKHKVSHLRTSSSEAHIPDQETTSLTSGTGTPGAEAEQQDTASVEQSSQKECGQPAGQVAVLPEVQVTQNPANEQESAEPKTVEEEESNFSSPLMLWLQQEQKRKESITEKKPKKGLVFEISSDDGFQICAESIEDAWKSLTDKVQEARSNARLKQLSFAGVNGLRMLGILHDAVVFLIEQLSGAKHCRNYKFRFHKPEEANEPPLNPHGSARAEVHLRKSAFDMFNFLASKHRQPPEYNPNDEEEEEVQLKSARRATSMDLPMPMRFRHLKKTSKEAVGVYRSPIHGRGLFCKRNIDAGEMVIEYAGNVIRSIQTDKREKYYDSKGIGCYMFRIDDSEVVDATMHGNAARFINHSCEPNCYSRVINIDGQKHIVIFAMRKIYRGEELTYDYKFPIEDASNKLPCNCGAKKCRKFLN

These are yes or no findings as the source states them, for the method shown. Binding seen in cells or lysates may run through a third protein. Some entries that bind do so weakly or less than the wild type.

Test [1] addresses RUNX1 (human (endogenous in RS4;11, SEM and CCRF-CEM)) (UniProt Q01196). The test can be described thus: co-IP; 500 ug RS4;11 or SEM (t(4;11)) nuclear extract in 20 mM Tris-HCl pH 7.5, 20% glycerol, 300 mM KCl, 5 mM EDTA; overnight at 4°C with anti-AF4-N, anti-RUNX1 or anti-MLL-C (rabbit IgG as control); protein A and G Dynabeads; wash at 150 mM KCl; Western blot. A general note: In western blotting, separated proteins are transferred to a membrane and probed.

For test [2], the target named is MLL-C (human (endogenous in RS4;11, SEM and CCRF-CEM)) (UniProt Q03164). Described as above.

B1: wild-type AF4 (protein, UniProt P51825 1-1210)
chain: MAAQSSLYNDDRNLLRIREKERRNQEAHQEKEAFPEKIPLFGEPYKTAKGDELSSRIQNMLGNYEEVKEFLSTKSHTHRLDASENRLGKPKYPLIPDKGSSIPSSSFHTSVHHQSIHTPASGPLSVGNISHNPKMAQPRTEPMPSLHAKSCGPPDSQHLTQDRLGQEGFGSSHHKKGDRRADGDHCASVTDSAPERELSPLISLPSPVPPLSPIHSNQQTLPRTQGSSKVHGSSNNSKGYCPAKSPKDLAVKVHDKETPQDSLVAPAQPPSQTFPPPSLPSKSVAMQQKPTAYVRPMDGQDQAPSESPELKPLPEDYRQQTFEKTDLKVPAKAKLTKLKMPSQSVEQTYSNEVHCVEEILKEMTHSWPPPLTAIHTPSTAEPSKFPFPTKDSQHVSSVTQNQKQYDTSSKTHSNSQQGTSSMLEDDLQLSDSEDSDSEQTPEKPPSSSAPPSAPQSLPEPVASAHSSSAESESTSDSDSSSDSESESSSSDSEENEPLETPAPEPEPPTTNKWQLDNWLTKVSQPAAPPEGPRSTEPPRRHPESKGSSDSATSQEHSESKDPPPKSSSKAPRAPPEAPHPGKRSCQKSPAQQEPPQRQTVGTKQPKKPVKASARAGSRTSLQGEREPGLLPYGSRDQTSKDKPKVKTKGRPRAAASNEPKPAVPPSSEKKKHKSSLPAPSKALSGPEPAKDNVEDRTPEHFALVPLTESQGPPHSGSGSRTSGCRQAVVVQEDSRKDRLPLPLRDTKLLSPLRDTPPPQSLMVKITLDLLSRIPQPPGKGSRQRKAEDKQPPAGKKHSSEKRSSDSSSKLAKKRKGEAERDCDNKKIRLEKEIKSQSSSSSSSHKESSKTKPSRPSSQSSKKEMLPPPPVSSSSQKPAKPALKRSRREADTCGQDPPKSASSTKSNHKDSSIPKQRRVEGKGSRSSSEHKGSSGDTANPFPVPSLPNGNSKPGKPQVKFDKQQADLHMREAKKMKQKAELMTDRVGKAFKYLEAVLSFIECGIATESESQSSKSAYSVYSETVDLIKFIMSLKSFSDATAPTQEKIFAVLCMRCQSILNMAMFRCKKDIAIKYSRTLNKHFESSSKVAQAPSPCIASTGTPSPLSPMPSPASSVGSQSSAGSVGSSGVAATISTPVTIQNMTSSYVTITSHVLTAFDLWEQAEALTRKNKEFFARLSTNVCTLALNSSLVDLVHYTRQGFQQLQELTKTP
With B1, the binding result in test [1] and in test [2] was “binds” throughout.
